Results are given in words; binding and its absence hold for the method and conditions named. In cells and extracts the contact can be indirect. Some entries that bind do so weakly or less than the wild type.
Columns and labels:
Test in all cases: pull-down; GST-tagged bait and His-Xpress-KCTD20 coexpressed in COS7 cells; lysates (20 mM HEPES pH 7.5, 150 mM NaCl, 1 mM DTT, 1 mM EDTA, 0.5% Triton X-100) precleared with sepharose 4B, pulled down with glutathione beads, washed five times; immunoblot with anti-Xpress and anti-GST
[1] = target: GST-Akt2 (UniProt P31751)
[2] = target: GST-tagged catalytic subunit of PP1A (UniProt P62136)
[3] = target: GST-Akt1 (UniProt P31749)
[4] = target: GST-Akt3 (UniProt Q9Y243)

The chains behind the UniProt entries cited, without tags or fusion partners.
UniProt P31751: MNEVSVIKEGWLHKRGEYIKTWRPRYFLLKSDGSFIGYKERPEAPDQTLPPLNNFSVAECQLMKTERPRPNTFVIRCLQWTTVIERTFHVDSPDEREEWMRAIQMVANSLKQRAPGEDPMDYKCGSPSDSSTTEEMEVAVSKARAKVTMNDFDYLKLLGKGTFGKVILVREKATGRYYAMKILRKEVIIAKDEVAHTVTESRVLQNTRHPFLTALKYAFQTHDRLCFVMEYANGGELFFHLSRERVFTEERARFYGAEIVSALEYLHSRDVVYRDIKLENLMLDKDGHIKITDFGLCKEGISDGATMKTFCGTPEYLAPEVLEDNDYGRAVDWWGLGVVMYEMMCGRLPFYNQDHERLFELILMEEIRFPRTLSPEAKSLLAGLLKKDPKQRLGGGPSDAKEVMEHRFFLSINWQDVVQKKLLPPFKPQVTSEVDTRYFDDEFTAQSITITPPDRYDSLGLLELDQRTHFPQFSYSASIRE
UniProt P62136: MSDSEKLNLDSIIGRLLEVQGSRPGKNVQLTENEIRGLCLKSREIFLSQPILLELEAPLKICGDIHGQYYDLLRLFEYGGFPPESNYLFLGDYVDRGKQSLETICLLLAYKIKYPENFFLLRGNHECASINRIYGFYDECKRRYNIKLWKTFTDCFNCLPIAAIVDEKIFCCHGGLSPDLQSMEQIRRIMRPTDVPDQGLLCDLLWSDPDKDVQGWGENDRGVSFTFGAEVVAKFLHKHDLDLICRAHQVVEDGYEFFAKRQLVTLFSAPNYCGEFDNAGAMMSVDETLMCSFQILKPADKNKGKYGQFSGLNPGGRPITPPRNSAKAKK
UniProt P31749: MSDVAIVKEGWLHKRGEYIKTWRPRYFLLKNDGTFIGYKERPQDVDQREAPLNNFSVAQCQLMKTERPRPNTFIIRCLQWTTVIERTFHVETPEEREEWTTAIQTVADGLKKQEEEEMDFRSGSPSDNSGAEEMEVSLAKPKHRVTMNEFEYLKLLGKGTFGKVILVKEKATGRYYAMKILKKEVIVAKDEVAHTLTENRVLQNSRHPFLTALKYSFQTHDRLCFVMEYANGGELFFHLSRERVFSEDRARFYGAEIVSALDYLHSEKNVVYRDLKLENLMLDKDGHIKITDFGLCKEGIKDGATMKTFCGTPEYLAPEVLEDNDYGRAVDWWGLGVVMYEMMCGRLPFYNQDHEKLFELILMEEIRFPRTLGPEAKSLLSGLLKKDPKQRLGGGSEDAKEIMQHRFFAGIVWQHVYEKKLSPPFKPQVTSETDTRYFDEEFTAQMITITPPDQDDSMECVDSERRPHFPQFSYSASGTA
UniProt Q9Y243: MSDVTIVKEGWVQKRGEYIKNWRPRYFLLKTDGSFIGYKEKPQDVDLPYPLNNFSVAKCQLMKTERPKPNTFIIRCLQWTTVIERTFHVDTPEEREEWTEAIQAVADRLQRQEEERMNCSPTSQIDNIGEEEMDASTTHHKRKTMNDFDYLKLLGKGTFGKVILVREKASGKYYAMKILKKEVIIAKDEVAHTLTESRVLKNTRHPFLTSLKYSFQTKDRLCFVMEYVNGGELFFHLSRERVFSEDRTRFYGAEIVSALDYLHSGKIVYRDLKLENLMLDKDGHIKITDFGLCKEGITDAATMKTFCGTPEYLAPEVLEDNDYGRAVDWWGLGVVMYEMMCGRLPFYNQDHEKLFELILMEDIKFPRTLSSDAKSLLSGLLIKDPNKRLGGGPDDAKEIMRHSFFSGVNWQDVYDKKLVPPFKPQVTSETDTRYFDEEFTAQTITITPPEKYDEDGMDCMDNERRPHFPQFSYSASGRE

Measured: binding

His-Xpress-KCTD20 (potassium channel tetramerization protein domain containing 20) (from UniProt Q7Z5Y7-1 1-419)
binds: all assays above

Source: PMC3827329
